Assay: LC-MS/MS quantification of pepcans in mouse tissues
Format: in vivo
Conditions: for PC-23 level in adrenals: Swiss albino female mice, saline or LPS

## SALSDLHAHKLRVDPVNFKLLSH [Pepcan-23, putative precursor of pepcan-12]
  PC-23 level in adrenals: below the limit of detection
Listed as PC-23
  PC-23 level in adrenals: < LOD
mouse, in vivo
  pepcan-23 amount in brain: 10 to 15 pmol/g
